No constants are given. Whether binding was seen depends on the method and setting. Some binding calls cover weakened binding; strength is not graded here.
Tests used:
[1] = biological target: V5-tagged peptide comprising the entire constant region of human IgE (human) (UniProt P01854); test: Western blot of in vitro translated V5-tagged IgE Fc peptides (Example 12 B) [panel anti-IgE 5I]
[2] = biological target: V5-tagged peptide comprising the CH2-CH3 region of human IgE (human) (UniProt P01854); test: as above
[3] = biological target: V5-tagged peptide comprising the entire constant region of human IgE (human) (UniProt P01854); test: Western blot of in vitro translated V5-tagged peptide
[4] = biological target: V5-tagged peptide comprising the CH2-CH3 region of human IgE (human) (UniProt P01854); test: as above
[5] = biological target: V5-tagged peptide comprising the entire constant region of human IgE (human) (UniProt P01854); test: Western blot of in vitro translated V5-tagged IgE Fc peptides (Example 12 B) [panel anti-IgE 2C]

Sequences of proteins named here, by UniProt entry; tags and fusion partners are left off. A change or cut given only in a name is not applied to a line headed by its entry. A line that says so, or that is headed by a name, gives the form on record, which may keep a tag or linker. Residues count along the entry.
V5-tagged peptide comprising the CH2-CH3 region of human IgE (P01854, residues 104-318): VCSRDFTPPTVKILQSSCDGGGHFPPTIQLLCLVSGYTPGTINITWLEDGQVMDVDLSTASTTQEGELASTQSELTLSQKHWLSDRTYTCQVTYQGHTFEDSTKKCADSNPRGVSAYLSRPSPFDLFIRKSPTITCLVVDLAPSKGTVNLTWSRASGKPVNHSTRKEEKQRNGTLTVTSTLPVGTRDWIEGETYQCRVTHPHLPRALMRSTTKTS
V5-tagged peptide comprising the entire constant region of human IgE (P01854, form named): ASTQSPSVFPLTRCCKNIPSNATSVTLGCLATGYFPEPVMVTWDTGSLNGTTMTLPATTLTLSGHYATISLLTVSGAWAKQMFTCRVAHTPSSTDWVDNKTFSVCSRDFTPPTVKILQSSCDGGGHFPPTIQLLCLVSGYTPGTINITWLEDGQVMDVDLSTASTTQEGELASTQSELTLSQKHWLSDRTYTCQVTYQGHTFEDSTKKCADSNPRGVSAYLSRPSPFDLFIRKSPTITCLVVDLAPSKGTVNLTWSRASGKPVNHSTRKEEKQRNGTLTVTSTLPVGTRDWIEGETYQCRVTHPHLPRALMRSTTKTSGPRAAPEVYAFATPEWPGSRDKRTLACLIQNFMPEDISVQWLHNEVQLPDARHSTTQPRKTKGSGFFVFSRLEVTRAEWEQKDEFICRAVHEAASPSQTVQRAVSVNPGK

Measured: binding

B1: Anti-IgE CL-5I (antibody, V domains shown)
VH: QVQLVQSGAEVMKPGSSVKVSCKASGYTFSMYWLEWVRQAPGHGLEWMGEIDPGTFETNYNEKFKARVTFTADTSTSTAYMELSSLRSEDTAVYYCARFSHFSGSNYDYFDYWGQGTLVTVSS
VL: EIVMTQSPATLSVSPGERATLSCRASQSIGTNIHWYQQKPGQAPRLLIYYASESISGIPARFSGSGSGTEFTLTISSLQSEDFAVYYCQQSWSWPTTFGGGTKVEIKT
not listed: [5]
binds: all other assays above

B2: Anti-IgE CL-2C (antibody, V domains shown)
VH: QVQLVQSGAEVMKPGSSVKVSCKASGYTFSWYWLEWVRQAPGHGLEWMGEIDPGTFTTNYNEKFKARVTFTADTSTSTAYMELSSLRSEDTAVYYCARFSHFSGSNYDYFDYWGQGTLVTVSS
VL: EIVMTQSPATLSVSPGERATLSCRASQSIGTNIHWYQQKPGQAPRLLIYYASESISGIPARFSGSGSGTEFTLTISSLQSEDFAVYYCQQSWSWPTTFGGGTKVEIKT
binds: [5] | [3] | [4]

Reference: patent publication US20050169909A1
